Laboratory results: paper PMC4775216
No constants are given. Whether binding was seen depends on the method and setting. Binding seen in cells or lysates may run through a third protein. Some results given as binding are weak or reduced against the parent protein; the word gives no strength.

Protein sequences, listed by entry. Tags and fused reporters are not part of them.
UniProt Q62311: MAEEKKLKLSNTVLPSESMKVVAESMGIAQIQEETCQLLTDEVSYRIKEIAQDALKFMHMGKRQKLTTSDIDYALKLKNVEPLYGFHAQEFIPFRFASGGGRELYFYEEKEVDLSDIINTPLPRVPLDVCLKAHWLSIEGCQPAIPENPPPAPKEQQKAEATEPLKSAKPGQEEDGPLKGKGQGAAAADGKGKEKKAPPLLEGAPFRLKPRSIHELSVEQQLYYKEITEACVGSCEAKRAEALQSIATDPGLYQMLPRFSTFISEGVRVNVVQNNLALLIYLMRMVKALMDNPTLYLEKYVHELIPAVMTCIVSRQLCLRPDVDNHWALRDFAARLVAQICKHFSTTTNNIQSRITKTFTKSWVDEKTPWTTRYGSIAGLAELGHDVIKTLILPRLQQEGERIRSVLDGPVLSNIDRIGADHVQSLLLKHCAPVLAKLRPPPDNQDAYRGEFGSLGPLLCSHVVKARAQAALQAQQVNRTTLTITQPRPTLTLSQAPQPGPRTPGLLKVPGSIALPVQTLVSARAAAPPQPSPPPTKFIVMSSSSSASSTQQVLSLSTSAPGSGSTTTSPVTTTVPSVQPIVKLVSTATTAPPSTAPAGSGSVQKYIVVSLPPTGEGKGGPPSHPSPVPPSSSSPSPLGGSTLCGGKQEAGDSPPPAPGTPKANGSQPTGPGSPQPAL

T1: TATA-box binding protein (TBP) (mouse (endogenous in C2C12)) (UniProt P29037)
T1 sequence: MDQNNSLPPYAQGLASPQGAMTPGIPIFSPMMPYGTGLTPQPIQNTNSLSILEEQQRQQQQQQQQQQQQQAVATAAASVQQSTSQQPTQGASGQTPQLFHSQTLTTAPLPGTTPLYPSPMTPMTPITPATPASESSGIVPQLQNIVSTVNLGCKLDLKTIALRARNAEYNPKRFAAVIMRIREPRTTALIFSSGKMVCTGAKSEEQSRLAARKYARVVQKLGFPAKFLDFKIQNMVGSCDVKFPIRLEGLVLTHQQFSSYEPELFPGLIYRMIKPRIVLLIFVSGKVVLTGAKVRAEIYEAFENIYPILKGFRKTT

B1: TAF4, core subunit of TFIID (protein, UniProt E9QAP7 1-1042)
chain: MAAGSDLLDEVFFNSEVDEKVVSDLVGSLESQLAASAAHHHHLAPRTPELRAAAAGALGNHVVSGSPAGAAGAGPAASAEGAPAAAPEPPPAGRARPAGGGPRRPGSSSPRRLLVPAGPAPAPAKLRPLPEASAGPCPAAAAAAAATAAAVAGPDPAAAAPPAGPGASKPGPPGPPGPGAAQTLNGSAAPPTAPHAAPAVSPVNNGPAPPPAAGSVIQAAPAPAAPSPPAAPAPAAPPPPAPPAPVAPARPPGHPAAPAPPVSPAAAAAAAAAAAAAQNGAAPAPAAASGGAAGLGQPGAGAQGAKAEAPKPGPGPGPGPAAAAAAAGVAGGGAAGSVLLGPAMPGALPGPAPGTPAGLAKGAAAATPSLPRTPAATTGAIRATLTPTVLAPRLPQPPQNPTNIQNFQLPPGMVLVRSENGQLLMIPQQALAQMQAHAQAQPQSTMAPRPATPTGAPPVQISTVQAPGTPIIARQVTPTTIIKQVSQAQTTVQPTTTLQRSPGVQPQLVLGGSAQPASLGTATAVQTGTPQRTVPGASTTSTAATETMENVKKCKSFLSTLIKLASSGKQSTETAANVKDLVQNLLDGKIEAEDFTSRLYRELNSSPQPYLVPFLKRSLPALRQLTPDSAAFIQQSQQQQPPASQATTALTAVVLSSSVQRTAGKTAASVTSALQPPVISLTQPTQVGVGKQAPPTPLVIQQPPKPGALIRPPQVTLTQTPMVALRQPHNRIMLTTPQQIQLNQLQPVPVVKPTVLPGTKALSTVSAQAAAAQKNKLKEPGGGSFRDDDDINDVASMAGVNLSEESARILATNSELVGTLTRSCKDDTFLLPAPLQRRILEIGKKHGITELHPDVVSYVSHATQQRLQNLVEKISETAQQKNFSYKDDDRYEQASDVRAQLKFFEQLDQIEKQRKDEQEREILMRAAKSRSRQEDPEQLRLKQKAKEMQQQELAQMRQRDANLTALAAIGPRKKRKVDCTGPGSGAEGSGPGAAVPGGSGVGTPRQFTRQRITRVNLRDLIFCLENERETSHSLLLYKAFLK

How the values were obtained:
[1] = target: T1, TATA-box binding protein (TBP) (mouse (endogenous in C2C12)); experiment: co-sedimentation; 10-55% glycerol gradient size fractionation of C2C12 myoblast and myotube nuclear extracts; BC buffer, 150 mM KCl, 45,000 rpm for 16 hr at 4°C; fractions analysed by immunoblot
[2] = target: T1, TATA-box binding protein (TBP) (mouse (endogenous in C2C12)); experiment: co-IP; endogenous TBP immunoprecipitated with anti-TBP (3TF1-3G3) cross-linked to protein G magnetic beads from C2C12 myoblast and myotube nuclear extracts; BC buffer, 150 mM KCl, overnight at 4°C, with Benzonase; washes at 150 and 300 mM KCl; eluted with TBP peptide PA81; immunoblot

Molecule	binding [1]	binding [2]
TAF6, core subunit of TFIID (from UniProt Q62311 1-678)	binds	binds
B1	binds	binds
